From paper PMC3975426 come the findings set out here.

Sequences of proteins named here, by UniProt entry; tags and fusion partners are left off.
UniProt Q6R327: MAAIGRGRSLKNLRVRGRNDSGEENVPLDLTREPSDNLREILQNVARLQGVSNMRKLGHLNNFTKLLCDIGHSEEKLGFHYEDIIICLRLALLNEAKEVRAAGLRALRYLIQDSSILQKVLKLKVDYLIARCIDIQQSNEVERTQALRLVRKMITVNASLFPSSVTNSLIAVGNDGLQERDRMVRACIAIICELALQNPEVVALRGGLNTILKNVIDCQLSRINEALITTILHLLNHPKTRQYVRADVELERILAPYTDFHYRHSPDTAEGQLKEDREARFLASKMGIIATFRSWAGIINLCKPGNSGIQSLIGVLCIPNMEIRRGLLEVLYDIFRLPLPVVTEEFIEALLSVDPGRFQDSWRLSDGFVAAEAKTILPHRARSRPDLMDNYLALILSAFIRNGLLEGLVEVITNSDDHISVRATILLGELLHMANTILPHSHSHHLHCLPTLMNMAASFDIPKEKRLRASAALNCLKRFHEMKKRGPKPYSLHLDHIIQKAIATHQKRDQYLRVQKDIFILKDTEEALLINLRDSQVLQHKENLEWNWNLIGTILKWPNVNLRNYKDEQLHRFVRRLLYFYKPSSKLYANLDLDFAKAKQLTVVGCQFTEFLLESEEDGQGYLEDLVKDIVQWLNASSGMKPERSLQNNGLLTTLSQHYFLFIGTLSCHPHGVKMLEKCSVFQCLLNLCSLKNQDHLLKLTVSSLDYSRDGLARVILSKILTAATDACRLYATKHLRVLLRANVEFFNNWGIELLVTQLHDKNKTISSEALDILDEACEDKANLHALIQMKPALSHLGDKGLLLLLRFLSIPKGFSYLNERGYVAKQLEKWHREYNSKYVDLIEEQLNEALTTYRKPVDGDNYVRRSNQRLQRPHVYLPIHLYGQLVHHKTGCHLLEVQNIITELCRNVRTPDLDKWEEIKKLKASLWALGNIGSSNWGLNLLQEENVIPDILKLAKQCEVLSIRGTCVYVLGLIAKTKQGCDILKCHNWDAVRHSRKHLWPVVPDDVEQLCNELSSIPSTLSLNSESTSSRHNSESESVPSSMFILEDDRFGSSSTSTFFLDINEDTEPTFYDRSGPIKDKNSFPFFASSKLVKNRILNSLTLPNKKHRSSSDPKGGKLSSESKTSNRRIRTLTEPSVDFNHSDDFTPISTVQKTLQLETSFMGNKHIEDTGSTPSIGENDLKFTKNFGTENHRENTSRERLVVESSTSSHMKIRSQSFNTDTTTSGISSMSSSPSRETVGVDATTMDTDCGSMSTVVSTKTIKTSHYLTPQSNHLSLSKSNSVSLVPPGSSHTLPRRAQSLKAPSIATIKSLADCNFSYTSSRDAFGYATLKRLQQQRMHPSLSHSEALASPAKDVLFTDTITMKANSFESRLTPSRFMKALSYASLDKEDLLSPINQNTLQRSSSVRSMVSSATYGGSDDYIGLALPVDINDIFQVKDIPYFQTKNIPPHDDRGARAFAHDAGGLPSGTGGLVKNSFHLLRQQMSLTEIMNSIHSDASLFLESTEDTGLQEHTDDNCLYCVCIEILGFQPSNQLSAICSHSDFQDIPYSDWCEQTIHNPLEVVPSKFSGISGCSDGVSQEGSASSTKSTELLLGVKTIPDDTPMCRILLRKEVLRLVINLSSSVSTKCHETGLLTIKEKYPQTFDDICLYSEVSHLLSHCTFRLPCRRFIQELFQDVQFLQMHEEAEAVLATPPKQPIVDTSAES
UniProt Q8N122: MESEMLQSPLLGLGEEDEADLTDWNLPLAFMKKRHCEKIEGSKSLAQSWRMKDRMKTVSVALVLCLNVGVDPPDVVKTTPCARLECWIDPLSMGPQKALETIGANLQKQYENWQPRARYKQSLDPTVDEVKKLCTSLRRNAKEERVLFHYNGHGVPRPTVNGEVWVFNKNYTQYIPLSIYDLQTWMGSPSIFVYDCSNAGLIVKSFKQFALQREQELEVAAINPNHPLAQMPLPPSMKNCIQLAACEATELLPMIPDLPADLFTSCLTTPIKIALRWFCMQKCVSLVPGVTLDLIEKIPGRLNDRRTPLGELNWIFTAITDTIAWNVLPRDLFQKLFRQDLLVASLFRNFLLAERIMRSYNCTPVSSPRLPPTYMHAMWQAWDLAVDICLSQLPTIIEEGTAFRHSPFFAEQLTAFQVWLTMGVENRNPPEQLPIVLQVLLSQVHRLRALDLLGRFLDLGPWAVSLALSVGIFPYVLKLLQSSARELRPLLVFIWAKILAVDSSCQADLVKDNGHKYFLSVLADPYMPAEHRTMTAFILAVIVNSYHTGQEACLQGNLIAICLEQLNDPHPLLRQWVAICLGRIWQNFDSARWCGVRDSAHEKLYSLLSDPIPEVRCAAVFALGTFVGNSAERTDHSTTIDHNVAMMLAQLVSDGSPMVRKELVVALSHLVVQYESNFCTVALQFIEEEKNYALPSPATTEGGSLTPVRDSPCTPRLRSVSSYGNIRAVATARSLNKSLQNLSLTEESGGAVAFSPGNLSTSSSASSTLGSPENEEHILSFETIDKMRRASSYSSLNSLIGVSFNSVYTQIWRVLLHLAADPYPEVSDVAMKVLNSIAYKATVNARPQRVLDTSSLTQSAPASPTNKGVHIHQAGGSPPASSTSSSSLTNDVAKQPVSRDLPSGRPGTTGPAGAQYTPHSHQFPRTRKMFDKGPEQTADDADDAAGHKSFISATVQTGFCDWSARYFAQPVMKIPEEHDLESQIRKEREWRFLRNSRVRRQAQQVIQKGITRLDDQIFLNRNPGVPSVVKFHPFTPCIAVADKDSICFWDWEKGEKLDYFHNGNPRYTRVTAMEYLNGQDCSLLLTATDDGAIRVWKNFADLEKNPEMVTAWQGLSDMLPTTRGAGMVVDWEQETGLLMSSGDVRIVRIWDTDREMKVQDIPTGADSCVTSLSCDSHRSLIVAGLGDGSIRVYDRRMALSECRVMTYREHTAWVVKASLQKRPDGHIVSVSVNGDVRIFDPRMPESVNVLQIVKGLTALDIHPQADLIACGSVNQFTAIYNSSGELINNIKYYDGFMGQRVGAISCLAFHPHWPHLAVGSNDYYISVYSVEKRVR

The target in this assay is rapamycin-insensitive companion of mTOR (rictor) (human (endogenous in CCRF-CEM and HEK293)) (UniProt Q6R327). As to the kind of experiment: co-IP; endogenous mTOR complexes precipitated from CCRF-CEM or HEK293 lysates with raptor or rictor antibody and Dynabeads G, overnight at 4 °C; lysis in CHAPS buffer lacking NaCl (40 mM HEPES pH 7.4, 0.3% CHAPS); washes with CHAPS buffer containing 150 mM NaCl; immunoblot of the elutes. Background: In western blotting, separated proteins are transferred to a membrane and probed.

These are yes or no findings as the source states them, for the method shown. Binding seen in cells or lysates may run through a third protein.

Take “regulatory-associated protein of mTOR (Raptor) (from UniProt Q8N122 1-1335)”: the binding entry is listed as “no binding”.
